Reference: PubChem BioAssay AID328 (DTP/NCI, 2004)
The list does not hold the whole screen: it gathers tests that were run many times, whatever their T/C, doses with no T/C, and many T/C values between a quarter and a half above the control. Other doses and runs of a compound stand elsewhere. T/C is the treated group as % of the vehicle group. Some entries give survivors of the animals treated and no T/C: the source holds a T/C of zero for them, seemingly a mark for toxic or unscored doses. Some survivor counts are full or nearly so, which does not show that the dose was tolerated: the source hardly ever lists a survival T/C far under the control, and the zero likely stands for such cases as well. Survivors were counted at the toxicity check, usually on the fifth day, unless a day is given; later deaths do not show. Schedule codes are those of the source, taken here to give the interval after Q, in days (D) or hours (H), and the number of doses after X. For survival time, this PubChem deposit counts one and a half times the control or more as active, and values a quarter to a half above the control carry no call in these data; other NCI protocols may use other cut-offs. Some T/C values carry the count of animals alive at the toxicity check (mostly the fifth day); without a count, all were alive then. Some entries were tested several times; the results are listed from low to high. Residues, ends and D or L forms follow the SMILES beside them. *: point of attachment. Boc = CC(C)(C)OC(=O)*; OBn = c1ccc(CO*)cc1

Test system: BDF1 mice, P388 leukemia ip, median survival T/C
Test: NCI In Vivo Anticancer Drug Screen. Data for tumor model P388 Leukemia (intraperitoneal) in B6D2F1 (BDF1) mice
Details: T/C endpoint: median survival time, higher T/C = longer survival
Procedure, shortened: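 Steps: implant the tumour, treat one group with compound and another with vehicle, record survival, then divide treated by control.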

[1] = dose: 200.0 mg/kg/injection, schedule: Q01DX009 (ip), vehicle: saline with Tween-80
[2] = dose: 400.0 mg/kg/injection, schedule: Q01DX009 (ip), vehicle: saline with Tween-80
[3] = dose: 400.0 mg/kg/injection, schedule: Q01DX009 (ip), vehicle: saline
[4] = dose: 400.0 mg/kg/injection, schedule: Q01DX009 (ip), vehicle: Klucel (hydroxypropylcellulose) (HPC)
[5] = dose: 50.0 mg/kg/injection, schedule: Q01DX009 (ip), vehicle: saline
[6] = dose: 100.0 mg/kg/injection, schedule: Q01DX009 (ip), vehicle: saline with Tween-80
[7] = dose: 25.0 mg/kg/injection, schedule: Q01DX009 (ip), vehicle: Klucel (hydroxypropylcellulose) (HPC)
[8] = dose: 50.0 mg/kg/injection, schedule: Q01DX009 (ip), vehicle: saline with Tween-80
[9] = dose: 25.0 mg/kg/injection, schedule: Q04DX003 (ip), vehicle: Klucel (hydroxypropylcellulose) (HPC)

O=C1c2ccccc2C(=O)c2c(NCCN3CCNCC3)ccc(NCCN3CCNCC3)c21
T/C (dose: 6.25 mg/kg/injection, schedule: Q01DX009 (ip), vehicle: water): 125 % of control | T/C (dose: 12.5 mg/kg/injection, schedule: Q01DX009 (ip), vehicle: water): 127 % of control | T/C (dose: 25.0 mg/kg/injection, schedule: Q01DX009 (ip), vehicle: water): 139 % of control | T/C (dose: 50.0 mg/kg/injection, schedule: Q01DX009 (ip), vehicle: water): 145 % of control | survivor count (dose: 100.0 mg/kg/injection, schedule: Q01DX009 (ip), vehicle: water): 2 of 6

CC(=O)[C@H]1CC[C@H]2[C@@H]3C[C@H](C)C4=CC(=O)CC[C@]4(C)[C@@]3(F)[C@@H](O)C[C@]12C
survivor count [1]: 5 of 6 | survivor count [2]: 6 of 6

CC12CCC(O)CC1CCC1C2CCC2(C)C(c3ccc(=O)oc3)C(O)C3OC132 (configuration not stated)
survivor count (dose: 1.87 mg/kg/injection, schedule: Q01DX009 (ip), vehicle: Klucel (hydroxypropylcellulose) (HPC)): 4 of 6

CC(C)(C)OC(=O)NCC(=O)NCC(=O)NCC(=O)OCc1ccccc1 (Boc-Gly-Gly-Gly-OBn)
survivor count (dose: 200.0 mg/kg/injection, schedule: Q01DX005 (ip), vehicle: saline with Tween-80): 4 of 5

CC(C)SC(=O)C[Si](C)(C)C
survivor count (dose: 400.0 mg/kg/injection, schedule: Q04DX003 (ip), vehicle: saline with Tween-80): 2 of 6

CC(C)n1cc2c(N)ncnc2n1
survivor count (dose: 200.0 mg/kg/injection, schedule: Q01DX009 (ip), vehicle: saline): 5 of 6 | survivor count (dose: 400.0 mg/kg/injection, schedule: Q04DX003 (ip), vehicle: saline): 3 of 6

CNc1nc(N)nc(Nc2ccc(I)cc2)c1N=O
survivor count [2]: 5 of 6

CC1(C)N=C(N)N=C(N)N1c1ccc(OCc2ccc(C(=O)Nc3cccc(S(=O)(=O)F)c3)cc2)c(Cl)c1
T/C (dose: 6.25 mg/kg/injection, schedule: Q04DX003 (ip), vehicle: Klucel (hydroxypropylcellulose) (HPC)): 138 % of control

C=CCOCC1CO1 (configuration not stated)
survivor count [3]: 2 of 5

COC(=O)C(CC(C)C)NC(=O)C(Cc1ccc(Oc2ccc([N+](=O)[O-])cc2[N+](=O)[O-])cc1)NC=O (configuration not stated)
T/C (dose: 50.0 mg/kg/injection, schedule: Q04DX003 (ip), vehicle: water, evaluated on day 21): 102 % of control | T/C (dose: 50.0 mg/kg/injection, schedule: Q04DX003 (ip), vehicle: water, evaluated on day 30): 104 and 107 % of control | survivor count (dose: 50.0 mg/kg/injection, schedule: Q04DX003 (ip), vehicle: water): 6 of 6 | T/C (dose: 100.0 mg/kg/injection, schedule: Q04DX003 (ip), vehicle: water, evaluated on day 21): 104 % of control | T/C (dose: 100.0 mg/kg/injection, schedule: Q04DX003 (ip), vehicle: water, evaluated on day 30): 101 and 107 % of control [5 of 6 alive] | T/C (dose: 100.0 mg/kg/injection, schedule: Q04DX003 (ip), vehicle: water, evaluated on day 31): 89 % of control | T/C (dose: 200.0 mg/kg/injection, schedule: Q04DX003 (ip), vehicle: water, evaluated on day 21): 104 % of control | T/C (dose: 200.0 mg/kg/injection, schedule: Q04DX003 (ip), vehicle: water, evaluated on day 30): 103 and 120 % of control | T/C (dose: 200.0 mg/kg/injection, schedule: Q04DX003 (ip), vehicle: water, evaluated on day 31): 130 % of control [5 of 6 alive]

CC1=CCC2C(=O)C=CC(=O)C2C1 (configuration not stated)
T/C (dose: 1.3 mg/kg/injection, schedule: Q01DX009 (ip), vehicle: Klucel (hydroxypropylcellulose) (HPC)): 127 % of control | T/C (dose: 3.12 mg/kg/injection, schedule: Q01DX009 (ip), vehicle: Klucel (hydroxypropylcellulose) (HPC)): 125 % of control | T/C (dose: 6.25 mg/kg/injection, schedule: Q01DX009 (ip), vehicle: Klucel (hydroxypropylcellulose) (HPC)): 125 % of control | survivor count (dose: 20.0 mg/kg/injection, schedule: Q04DX003 (ip), vehicle: Klucel (hydroxypropylcellulose) (HPC)): 3 of 6 | survivor count (dose: 28.0 mg/kg/injection, schedule: Q01DX009 (ip), vehicle: Klucel (hydroxypropylcellulose) (HPC)): 4 of 6 | survivor count (dose: 40.0 mg/kg/injection, schedule: Q01DX009 (ip), vehicle: Klucel (hydroxypropylcellulose) (HPC)): 1 of 6 | survivor count (dose: 40.0 mg/kg/injection, schedule: Q04DX003 (ip), vehicle: Klucel (hydroxypropylcellulose) (HPC)): 0 of 6

O=C(Nc1cccc(C(F)(F)F)c1)Nc1nccs1
survivor count [4]: 0 of 6

CC(=O)c1ccc[n+](C)c1
survivor count [5]: 6 of 6

N#Cc1c(SCc2ccc(Cl)cc2)nsc1Nc1ccc(Cl)cc1
survivor count [6]: 0 of 6 | survivor count [1]: 0 of 6

Cc1c2c(ccc3ccccc32)c[n+]2ccccc12
survivor count (dose: 25.0 mg/kg/injection, schedule: Q01DX009 (ip), vehicle: saline): 1 of 6 | survivor count (dose: 50.0 mg/kg/injection, schedule: Q04DX003 (ip), vehicle: saline): 0 of 6

Clc1ccc2nc(CI)c(CI)nc2c1
T/C (dose: 12.5 mg/kg/injection, schedule: Q01DX009 (ip), vehicle: saline with Tween-80): 130 % of control | T/C [7]: 127 % of control | T/C (dose: 25.0 mg/kg/injection, schedule: Q01DX009 (ip), vehicle: saline with Tween-80): 125 % of control [5 of 6 alive] | T/C [8]: 130 % of control | survivor count [8]: 5 of 6 | survivor count (dose: 75.0 mg/kg/injection, schedule: Q01DX009 (ip), vehicle: saline with Tween-80): 5 of 6 | survivor count [6]: 6 of 6 | survivor count [1]: 1 of 6 | survivor count [2]: 0 of 6

CCCCCCCCCCCCCCCCN(C)c1ccc(C=O)cc1
T/C [3]: 140 % of control

CCN1c2ccccc2CC(CCN(C(C)C)C(C)C)(C(N)=O)c2ccccc21 (configuration not stated)
survivor count (dose: 200.0 mg/kg/injection, schedule: Q04DX002 (ip), vehicle: saline with Tween-80): 0 of 6 | survivor count (dose: 400.0 mg/kg/injection, schedule: Q04DX002 (ip), vehicle: saline with Tween-80): 0 of 6

C[C@]12CC[C@H]3C(=CCc4cc(O)ccc43)[C@@H]1CCC2=O
survivor count (dose: 100.0 mg/kg/injection, schedule: Q01DX009 (ip), vehicle: Klucel (hydroxypropylcellulose) (HPC)): 6 of 6 | survivor count [4]: 6 of 6

C=[CH][Sn]([CH]=C)([CH]=C)[O]C(C)=O
T/C (dose: 8.2 mg/kg/injection, schedule: Q01DX009 (ip), vehicle: saline): 146 % of control | T/C (dose: 18.0 mg/kg/injection, schedule: Q01DX009 (ip), vehicle: saline): 149 % of control | survivor count [7]: 0 of 6 | T/C [9]: 126 % of control [5 of 6 alive] | survivor count [9]: 2 of 6 | survivor count [5]: 0 of 6 | survivor count (dose: 50.0 mg/kg/injection, schedule: Q04DX003 (ip), vehicle: Klucel (hydroxypropylcellulose) (HPC)): 0 of 6

CCN(CC)CC(=O)c1ccc(O)c(O)c1
T/C [6]: 131 % of control | T/C [1]: 142 % of control | T/C [2]: 144 % of control

Cc1cc(=O)c2cccc(C)c2[nH]1
survivor count (dose: 400.0 mg/kg/injection, schedule: Q04DX003 (ip), vehicle: Klucel (hydroxypropylcellulose) (HPC)): 4 of 6

CC(C)COC(=O)c1cc(O)c(O)c(O)c1
survivor count [6]: 6 of 6

Cn1ccn(C2CCCCC2)c1=O
survivor count (dose: 100.0 mg/kg/injection, schedule: Q04DX003 (ip), vehicle: saline with Tween-80): 6 of 6

CCC1(Br)OC1=O (configuration not stated)
T/C (dose: 225.0 mg/kg/injection, schedule: Q01DX009 (ip), vehicle: saline): 130 % of control

COc1ccc(N/N=C(\C)C2(O)Cc3c(O)c4c(c(O)c3C(OC3CC(N)C(O)C(C)O3)C2)C(=O)c2c(OC)cccc2C4=O)cc1 (configuration not stated)
T/C (dose: 2.88 mg/kg/injection, schedule: Q04DX003 (ip), vehicle: water): 137 % of control | T/C (dose: 8.0 mg/kg/injection, schedule: Q04DX003 (ip), vehicle: water): 141 % of control
